Data published in the supplement of paper PMC12067093, “Discovery and optimisation of a covalent ligand for TRIM25 and its application to targeted protein ubiquitination” (Chemical Science, 2025).
The other results are listed elsewhere or left out.

Protein sequences, listed by entry. Tags and fused reporters are not part of them. Lines headed by an entry give the natural chain unless they say otherwise; changes in a name come on top.
UniProt P13591, whole entry, looked up: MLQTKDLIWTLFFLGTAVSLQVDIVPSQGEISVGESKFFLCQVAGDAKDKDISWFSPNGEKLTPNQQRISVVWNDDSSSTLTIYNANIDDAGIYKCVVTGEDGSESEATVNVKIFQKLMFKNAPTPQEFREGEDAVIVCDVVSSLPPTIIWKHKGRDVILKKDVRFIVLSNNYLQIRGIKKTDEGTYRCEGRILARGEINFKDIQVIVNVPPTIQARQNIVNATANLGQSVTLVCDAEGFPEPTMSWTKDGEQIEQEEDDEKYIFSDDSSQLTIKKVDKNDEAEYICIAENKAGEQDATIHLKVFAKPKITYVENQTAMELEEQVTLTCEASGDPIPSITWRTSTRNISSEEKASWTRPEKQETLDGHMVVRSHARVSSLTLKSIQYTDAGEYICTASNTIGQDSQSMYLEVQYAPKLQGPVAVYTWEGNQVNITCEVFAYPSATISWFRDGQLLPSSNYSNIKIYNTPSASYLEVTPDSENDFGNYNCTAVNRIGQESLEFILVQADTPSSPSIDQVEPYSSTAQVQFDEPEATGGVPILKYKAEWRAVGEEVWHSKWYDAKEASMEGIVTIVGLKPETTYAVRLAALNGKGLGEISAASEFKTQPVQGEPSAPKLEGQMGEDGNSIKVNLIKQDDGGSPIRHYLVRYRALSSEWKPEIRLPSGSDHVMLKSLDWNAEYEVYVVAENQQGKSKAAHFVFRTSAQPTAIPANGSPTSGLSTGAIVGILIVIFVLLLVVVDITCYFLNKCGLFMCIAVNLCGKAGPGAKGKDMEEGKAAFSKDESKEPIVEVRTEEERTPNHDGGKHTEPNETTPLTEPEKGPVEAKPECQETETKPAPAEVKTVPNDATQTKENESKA
UniProt Q9UHQ1: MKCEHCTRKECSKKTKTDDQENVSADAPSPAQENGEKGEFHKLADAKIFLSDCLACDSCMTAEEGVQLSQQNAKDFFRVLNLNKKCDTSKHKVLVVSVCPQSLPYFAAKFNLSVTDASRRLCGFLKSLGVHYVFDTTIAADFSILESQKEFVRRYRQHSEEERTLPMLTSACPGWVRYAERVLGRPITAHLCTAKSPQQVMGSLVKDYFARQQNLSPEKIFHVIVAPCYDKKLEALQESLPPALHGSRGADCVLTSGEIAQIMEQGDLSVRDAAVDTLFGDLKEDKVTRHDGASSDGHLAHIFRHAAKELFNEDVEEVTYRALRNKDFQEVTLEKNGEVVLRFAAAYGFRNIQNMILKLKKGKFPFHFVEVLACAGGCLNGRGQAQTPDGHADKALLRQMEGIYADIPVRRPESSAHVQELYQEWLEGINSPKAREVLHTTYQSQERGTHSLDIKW
UniProt Q6XQN6: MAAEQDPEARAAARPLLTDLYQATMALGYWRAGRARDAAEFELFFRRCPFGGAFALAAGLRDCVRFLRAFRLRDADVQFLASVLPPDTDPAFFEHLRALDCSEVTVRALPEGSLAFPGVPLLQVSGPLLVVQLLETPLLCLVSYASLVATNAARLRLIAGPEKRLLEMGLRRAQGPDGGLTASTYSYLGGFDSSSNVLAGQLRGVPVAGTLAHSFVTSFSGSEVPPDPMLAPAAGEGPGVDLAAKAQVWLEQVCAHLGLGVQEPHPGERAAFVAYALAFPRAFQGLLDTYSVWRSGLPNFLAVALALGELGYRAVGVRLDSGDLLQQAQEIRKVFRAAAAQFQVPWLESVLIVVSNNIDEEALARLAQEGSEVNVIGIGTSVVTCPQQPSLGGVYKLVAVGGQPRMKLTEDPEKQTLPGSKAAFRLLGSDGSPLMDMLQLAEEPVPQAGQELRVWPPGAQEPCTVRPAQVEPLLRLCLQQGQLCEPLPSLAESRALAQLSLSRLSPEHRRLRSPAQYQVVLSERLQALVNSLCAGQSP
UniProt Q9NR45: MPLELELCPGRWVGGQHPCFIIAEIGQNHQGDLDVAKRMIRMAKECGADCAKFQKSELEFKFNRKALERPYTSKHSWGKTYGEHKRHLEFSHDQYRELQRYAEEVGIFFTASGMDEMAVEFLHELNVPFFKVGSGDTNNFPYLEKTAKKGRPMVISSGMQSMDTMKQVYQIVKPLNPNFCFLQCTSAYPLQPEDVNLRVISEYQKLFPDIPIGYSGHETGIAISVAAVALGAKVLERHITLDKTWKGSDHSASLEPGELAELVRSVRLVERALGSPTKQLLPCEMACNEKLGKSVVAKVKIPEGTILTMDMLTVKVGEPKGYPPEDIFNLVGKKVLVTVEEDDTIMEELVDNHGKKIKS
UniProt O60934: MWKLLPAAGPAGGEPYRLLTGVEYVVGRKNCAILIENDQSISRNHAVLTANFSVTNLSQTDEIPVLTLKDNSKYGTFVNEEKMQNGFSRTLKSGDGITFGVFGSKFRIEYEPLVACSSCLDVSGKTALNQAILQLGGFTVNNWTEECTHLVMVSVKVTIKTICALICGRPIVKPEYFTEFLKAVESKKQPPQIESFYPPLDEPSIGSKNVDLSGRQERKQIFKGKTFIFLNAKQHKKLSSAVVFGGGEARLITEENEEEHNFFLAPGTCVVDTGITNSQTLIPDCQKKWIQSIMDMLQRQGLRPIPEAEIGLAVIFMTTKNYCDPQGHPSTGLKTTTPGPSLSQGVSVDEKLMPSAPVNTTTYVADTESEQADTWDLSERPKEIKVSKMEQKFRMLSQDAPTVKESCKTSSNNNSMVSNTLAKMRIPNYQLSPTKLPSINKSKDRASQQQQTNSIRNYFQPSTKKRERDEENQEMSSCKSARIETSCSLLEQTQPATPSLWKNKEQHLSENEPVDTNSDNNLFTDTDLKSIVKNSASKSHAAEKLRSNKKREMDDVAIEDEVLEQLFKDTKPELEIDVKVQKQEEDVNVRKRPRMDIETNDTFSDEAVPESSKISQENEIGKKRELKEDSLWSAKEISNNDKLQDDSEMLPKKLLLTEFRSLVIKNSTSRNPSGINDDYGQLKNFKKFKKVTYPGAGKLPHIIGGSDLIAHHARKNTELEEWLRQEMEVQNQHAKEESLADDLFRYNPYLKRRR
UniProt Q15003, whole entry, looked up: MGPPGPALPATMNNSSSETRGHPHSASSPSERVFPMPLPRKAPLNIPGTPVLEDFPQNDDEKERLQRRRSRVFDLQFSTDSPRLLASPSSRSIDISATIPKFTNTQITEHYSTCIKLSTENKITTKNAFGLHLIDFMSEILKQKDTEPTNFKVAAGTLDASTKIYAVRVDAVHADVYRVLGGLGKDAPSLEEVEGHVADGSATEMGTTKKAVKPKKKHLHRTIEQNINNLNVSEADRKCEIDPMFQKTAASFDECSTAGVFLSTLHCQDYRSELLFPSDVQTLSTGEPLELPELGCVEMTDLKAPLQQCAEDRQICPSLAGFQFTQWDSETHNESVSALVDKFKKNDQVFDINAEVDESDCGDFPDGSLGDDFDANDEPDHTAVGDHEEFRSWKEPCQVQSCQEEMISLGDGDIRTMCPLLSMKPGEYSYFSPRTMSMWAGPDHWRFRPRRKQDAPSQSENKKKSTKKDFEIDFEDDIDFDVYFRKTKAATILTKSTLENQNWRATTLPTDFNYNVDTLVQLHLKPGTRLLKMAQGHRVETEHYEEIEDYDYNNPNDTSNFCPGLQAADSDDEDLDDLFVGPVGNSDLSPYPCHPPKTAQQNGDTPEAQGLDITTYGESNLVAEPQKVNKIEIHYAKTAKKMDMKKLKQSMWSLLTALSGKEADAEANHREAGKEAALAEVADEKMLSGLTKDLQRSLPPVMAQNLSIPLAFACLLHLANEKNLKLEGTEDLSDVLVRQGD
UniProt Q14596: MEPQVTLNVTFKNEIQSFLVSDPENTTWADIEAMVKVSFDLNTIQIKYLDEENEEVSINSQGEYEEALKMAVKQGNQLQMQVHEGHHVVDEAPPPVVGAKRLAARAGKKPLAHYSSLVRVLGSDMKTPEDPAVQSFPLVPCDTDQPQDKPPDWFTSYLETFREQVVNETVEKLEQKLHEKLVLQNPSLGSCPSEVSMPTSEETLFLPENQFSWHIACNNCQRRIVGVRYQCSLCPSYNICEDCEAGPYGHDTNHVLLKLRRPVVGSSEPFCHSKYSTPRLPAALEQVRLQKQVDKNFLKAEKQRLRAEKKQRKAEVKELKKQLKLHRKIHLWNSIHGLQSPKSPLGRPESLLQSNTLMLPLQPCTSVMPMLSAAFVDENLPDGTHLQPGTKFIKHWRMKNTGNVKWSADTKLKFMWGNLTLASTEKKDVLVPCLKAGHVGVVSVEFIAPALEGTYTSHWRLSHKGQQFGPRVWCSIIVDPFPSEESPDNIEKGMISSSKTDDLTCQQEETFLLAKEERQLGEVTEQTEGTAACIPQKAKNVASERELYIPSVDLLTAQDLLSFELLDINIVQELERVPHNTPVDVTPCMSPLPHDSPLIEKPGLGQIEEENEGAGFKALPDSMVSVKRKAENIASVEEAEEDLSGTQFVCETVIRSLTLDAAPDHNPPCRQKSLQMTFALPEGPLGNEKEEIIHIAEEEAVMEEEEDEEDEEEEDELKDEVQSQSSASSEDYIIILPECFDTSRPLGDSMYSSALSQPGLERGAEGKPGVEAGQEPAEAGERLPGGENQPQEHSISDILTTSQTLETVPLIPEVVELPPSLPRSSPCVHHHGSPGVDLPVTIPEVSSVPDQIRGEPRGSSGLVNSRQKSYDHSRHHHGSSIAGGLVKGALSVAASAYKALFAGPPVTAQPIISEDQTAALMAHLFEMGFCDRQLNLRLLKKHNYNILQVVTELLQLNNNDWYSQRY
UniProt P41227: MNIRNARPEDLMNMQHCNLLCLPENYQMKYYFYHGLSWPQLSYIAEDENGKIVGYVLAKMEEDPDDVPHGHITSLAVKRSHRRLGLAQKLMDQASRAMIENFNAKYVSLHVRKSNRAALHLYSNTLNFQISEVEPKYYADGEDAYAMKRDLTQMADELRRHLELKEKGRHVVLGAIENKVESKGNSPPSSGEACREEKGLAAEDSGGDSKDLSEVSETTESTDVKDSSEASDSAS
UniProt O00160: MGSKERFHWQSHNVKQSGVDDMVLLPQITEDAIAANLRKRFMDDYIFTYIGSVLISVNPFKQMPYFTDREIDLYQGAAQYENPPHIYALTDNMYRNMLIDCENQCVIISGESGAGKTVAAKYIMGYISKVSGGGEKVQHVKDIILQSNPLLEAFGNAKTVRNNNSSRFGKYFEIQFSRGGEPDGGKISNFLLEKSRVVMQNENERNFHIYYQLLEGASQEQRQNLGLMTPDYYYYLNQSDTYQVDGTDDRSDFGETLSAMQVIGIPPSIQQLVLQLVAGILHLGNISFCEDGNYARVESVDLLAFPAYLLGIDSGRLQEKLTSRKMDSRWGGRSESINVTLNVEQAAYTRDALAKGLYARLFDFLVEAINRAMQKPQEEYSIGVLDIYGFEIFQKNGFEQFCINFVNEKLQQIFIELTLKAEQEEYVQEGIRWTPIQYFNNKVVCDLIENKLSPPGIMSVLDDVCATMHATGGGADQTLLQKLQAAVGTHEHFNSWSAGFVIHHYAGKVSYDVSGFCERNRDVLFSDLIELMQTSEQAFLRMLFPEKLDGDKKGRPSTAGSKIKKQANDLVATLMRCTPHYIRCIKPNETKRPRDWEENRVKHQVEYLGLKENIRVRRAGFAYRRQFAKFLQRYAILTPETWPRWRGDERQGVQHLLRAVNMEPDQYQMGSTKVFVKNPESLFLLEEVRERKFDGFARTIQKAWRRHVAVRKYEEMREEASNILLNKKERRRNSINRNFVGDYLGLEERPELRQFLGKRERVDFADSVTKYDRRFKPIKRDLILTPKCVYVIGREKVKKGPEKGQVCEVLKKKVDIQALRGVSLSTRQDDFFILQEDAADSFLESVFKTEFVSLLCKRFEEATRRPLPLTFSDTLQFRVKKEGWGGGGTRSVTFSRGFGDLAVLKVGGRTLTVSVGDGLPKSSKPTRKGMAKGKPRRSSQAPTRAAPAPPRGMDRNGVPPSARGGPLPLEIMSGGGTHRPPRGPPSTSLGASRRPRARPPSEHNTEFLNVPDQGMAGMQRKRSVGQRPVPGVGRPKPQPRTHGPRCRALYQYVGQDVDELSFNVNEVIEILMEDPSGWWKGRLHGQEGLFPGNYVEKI
UniProt P19878: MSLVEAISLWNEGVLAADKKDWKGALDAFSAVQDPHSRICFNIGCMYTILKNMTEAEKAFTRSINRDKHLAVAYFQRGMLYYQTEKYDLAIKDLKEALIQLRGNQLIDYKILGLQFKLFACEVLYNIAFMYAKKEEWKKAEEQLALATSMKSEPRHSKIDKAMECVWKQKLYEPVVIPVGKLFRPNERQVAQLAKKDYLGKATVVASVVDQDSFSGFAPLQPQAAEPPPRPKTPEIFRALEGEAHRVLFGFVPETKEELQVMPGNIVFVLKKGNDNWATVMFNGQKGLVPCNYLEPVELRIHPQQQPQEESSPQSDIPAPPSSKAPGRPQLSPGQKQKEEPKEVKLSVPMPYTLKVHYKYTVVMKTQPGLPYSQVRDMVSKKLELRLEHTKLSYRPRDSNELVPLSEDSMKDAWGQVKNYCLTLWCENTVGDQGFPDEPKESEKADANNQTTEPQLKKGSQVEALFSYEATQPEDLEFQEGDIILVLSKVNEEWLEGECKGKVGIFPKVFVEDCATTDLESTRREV

Compound: Cc1cc(ccc1-c1ccccc1)C(=O)N1CCCN(CC1)C(=O)CCl [compound 10]
Assay: probe-labelled cysteine peptide fold change vs DMSO (competition) (log2 fold change); higher = less target engagement (more negative = stronger competition)
Conditions: THP-1, incubation time: 4 h
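Further: competitive profiling in live THP-1 cells: cysteine peptides tagged with an iodoacetamide desthiobiotin (IA-DTB) probe, intensity after compound treatment relative to DMSO-treated cells.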

| Target | probe-labelled cysteine peptide fold change (10 µM) | probe-labelled cysteine peptide fold change (50 µM) |
| --- | --- | --- |
| NCAM1_P13591_829_GPVEAKPECQETETK (UniProt P13591) | 0.0715 | 0.228 |
| NARF_Q9UHQ1_192_VLGRPITAHLCTAK (UniProt Q9UHQ1) | -0.224 | -0.402 |
| MYO6_Q9UM54_610_NNDALHMSLESLICESR (UniProt Q9UM54) | 0.0623 | -0.198 |
| NAPRT_Q6XQN6_477+484_LCLQQGQLCEPLPSLAESR (UniProt Q6XQN6) | -0.0859 | 0.158 |
| NANS_Q9NR45_19_WVGGQHPCFIIAEIGQNHQGDLDVAKR (UniProt Q9NR45) | 0.167 | -0.417 |
| NBN_O60934_478_ERDEENQEMSSCK (UniProt O60934) | -0.438 | -0.348 |
| NCAPH_Q15003_397+402_EPCQVQSCQEEMISLGDGDIR (UniProt Q15003) | -0.189 | -0.308 |
| NBR1_Q14596_505_TDDLTCQQEETFLLAK (UniProt Q14596) | -0.0532 | 0.148 |
| NAA10_P41227_17_NARPEDLMNMQHCNLLCLPENYQMK (UniProt P41227) | 0.0322 | -0.276 |
| MYO1F_O00160_788_CVYVIGR (UniProt O00160) | 0.0832 | 0.101 |
| NBN_O60934_323_NYCDPQGHPSTGLK (UniProt O60934) | 0.0867 | 0.00867 |
| NBAS_A2RRP1_1771_LQYYFTLLENCGCADLGNCAIKPETHIR (UniProt A2RRP1) | -0.181 | -0.206 |
| NCF2_P19878_291_GLVPCNYLEPVELR (UniProt P19878) | 0.107 | -0.0202 |
| NCAPG2_Q86XI2_285_ILEAIENDCIQDFMFHGIHLPR (UniProt Q86XI2) | -0.0654 | 0.21 |
